# Inconclusive means that the source gave no clear call. Such entries were picked first, then a sample of the others. For some assays here: Where the call is inconclusive, the potency comes from a doubtful curve fit. Active and inactive are the calls of the source. Calls follow the shape of the dose curve; as a rule, active = well fitted cell-killing curve with a large enough effect; inconclusive = small, poorly fitted or top-dose-only effect, or effect the other way; inactive = no such curve, though single readings can be large or run the other way.
# Key:
# [1] = Quantitative High-Throughput drug screen in 47 multiple myeloma cell lines against the NCATS MIPE library collection: KMS20_JCRB cell viability assay (AID 1918973); details: CellTiter-Glo ATP, 48 h; viability (% of DMSO): at 45.8 µM (top of the series); also: nearly all actives have a fitted effect of over 45% in size
# Procedure, shortened: (§1)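 Primary qHTS used for cherry-picking: cells at 500/well, library compounds for 48 h (37C, 5% CO2), luminescent ATP assay.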
# [2] = Quantitative High-Throughput drug screen in 47 multiple myeloma cell lines against the NCATS MIPE library collection: KMS21BM_JCRB cell viability assay (AID 1918974); details: ATP luminescence, 48 h; viability: at 45.8 µM (top of the series) unless noted
# Procedure, shortened: as §1
# [3] = Quantitative High-Throughput drug screen in 47 multiple myeloma cell lines against the NCATS MIPE library collection: MMM1_PLB cell viability assay (AID 1918976); also: nearly all actives have a fitted effect of over 35% in size
# Procedure, shortened: (§2)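 Cells were exposed to library compounds for 48 hours, after which ATP was measured by CellTiter-Glo. Signal was taken as median relative luminescence units.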
# [4] = Quantitative High-Throughput drug screen in 47 multiple myeloma cell lines against the NCATS MIPE library collection: MOLP8_DSMZ cell viability assay (AID 1918977); details: MOLP8 myeloma viability, CellTiter-Glo ATP luminescence, 48 h; viability (% of control): at 45.8 µM (top of the series); also: nearly all actives have a fitted effect of over 45% in size
# Procedure, shortened: as §2
# [5] = Quantitative High-Throughput drug screen in 47 multiple myeloma cell lines against the NCATS MIPE library collection: MM1R_ATCC cell viability assay (AID 1918981); also: nearly all actives have a fitted effect of over 35% in size
# Procedure, shortened: as §2
# [6] = Quantitative High-Throughput drug screen in 47 multiple myeloma cell lines against the NCATS MIPE library collection: L363_DSMZ cell viability assay (AID 1918984); details: L363 myeloma viability, CellTiter-Glo ATP luminescence, 48 h; viability (% of control): at 45.8 µM (top of the series); also: nearly all actives have a fitted effect of over 40% in size
# Procedure, shortened: as §2
# [7] = Quantitative High-Throughput drug screen in 47 multiple myeloma cell lines against the NCATS MIPE library collection: KMS34_JCRB cell viability assay (AID 1918985); details: KMS34 myeloma viability, CellTiter-Glo ATP luminescence, 48 h; series mostly up to 45.8 µM; also: nearly all actives have a fitted effect of over 40% in size
# Procedure, shortened: as §2
# [8] = Quantitative High-Throughput drug screen in 47 multiple myeloma cell lines against the NCATS MIPE library collection: OCIMY7_PLB cell viability assay (AID 1918987); details: OCI-MY7 myeloma viability, CellTiter-Glo ATP, 48 h; viability (% of DMSO): at 45.8 µM (top of the series); also: nearly all actives have a fitted effect of over 65% in size
# Procedure, shortened: as §2
# [9] = Quantitative High-Throughput drug screen in 47 multiple myeloma cell lines against the NCATS MIPE library collection: OPM1_PLB cell viability assay (AID 1918989); also: nearly all actives have a fitted effect of over 40% in size
# Procedure, shortened: as §2
# [10] = Quantitative High-Throughput drug screen in 47 multiple myeloma cell lines against the NCATS MIPE library collection: SKMM1_PLB cell viability assay (AID 1919863); details: SKMM1 myeloma viability, CellTiter-Glo ATP, 48 h; viability: stronger effect = lower value; also: nearly all actives have a fitted effect of over 35% in size
# Procedure, shortened: as §2
# [11] = Quantitative High-Throughput drug screen in 47 multiple myeloma cell lines against the NCATS MIPE library collection: XG6_PLB cell viability assay (AID 1919865); details: XG6 myeloma viability, CellTiter-Glo ATP luminescence, 48 h; viability (% of control): at 45.8 µM (top of the series); also: nearly all actives have a fitted effect of over 40% in size
# Procedure, shortened: as §2
# [12] = Quantitative High-Throughput drug screen in 47 multiple myeloma cell lines against the NCATS MIPE library collection: XG1_PLB cell viability assay (AID 1919866); details: CellTiter-Glo ATP, 48 h; viability: at 45.8 µM (top of the series); also: nearly all actives have a fitted effect of over 35% in size
# Procedure, shortened: as §2
# [13] = Quantitative High-Throughput drug screen in 47 multiple myeloma cell lines against the NCATS MIPE library collection: OCIMY1_PLB cell viability assay (AID 1918979); details: OCI-MY1 myeloma viability, CellTiter-Glo ATP, 48 h; viability: at 45.8 µM (top of the series) unless noted; also: nearly all actives have a fitted effect of over 35% in size
# Procedure, shortened: as §2
# [14] = Quantitative High-Throughput drug screen in 47 multiple myeloma cell lines against the NCATS MIPE library collection: KMS28PE_JCRB cell viability assay (AID 1918983); also: nearly all actives have a fitted effect of over 35% in size
# Procedure, shortened: as §2
# [15] = Quantitative High-Throughput drug screen in 47 multiple myeloma cell lines against the NCATS MIPE library collection: OCIMY5_PLB cell viability assay (AID 1918988); details: OCI-MY5 myeloma viability, ATP luminescence, 48 h; series mostly up to 45.8 µM; also: nearly all actives have a fitted effect of over 65% in size
# Procedure, shortened: as §2
# [16] = Quantitative High-Throughput drug screen in 47 multiple myeloma cell lines against the NCATS MIPE library collection: U266_ATCC cell viability assay (AID 1919864); details: U266 myeloma viability, CellTiter-Glo ATP luminescence, 48 h; series mostly up to 45.8 µM; also: nearly all actives have a fitted effect of over 35% in size
# Procedure, shortened: as §2
# [17] = Quantitative High-Throughput drug screen in 47 multiple myeloma cell lines against the NCATS MIPE library collection: MM1S_ATCC cell viability assay (AID 1918980); also: nearly all actives have a fitted effect of over 45% in size
# Procedure, shortened: as §2
# [18] = Quantitative High-Throughput drug screen in 47 multiple myeloma cell lines against the NCATS MIPE library collection: LP1_DSMZ cell viability assay (AID 1918982); details: LP1 myeloma viability, CellTiter-Glo ATP luminescence, 48 h; viability (% of control): at 45.8 µM (top of the series); also: nearly all actives have a fitted effect of over 35% in size
# Procedure, shortened: as §2
# Potency is read from the fitted curve at half-maximal effect.
Structure (SMILES),Potency [1],Potency [2],Potency [3],Potency [4],Potency [5],Potency [6],Potency [7],Potency [8],Potency [9],Potency [10],Potency [11],Potency [12],Potency [13],Potency [14],Potency [15],Potency [16],Potency [17],Potency [18]
COc1cc2c(cc1OC)[C@@H]1Cc3ccc(OC)c(OC)c3CN1CC2,"inconclusive: 0.469 µM [cytotoxic, full curve, poor fit]","inconclusive: 37.2 µM [rising, partial curve]",active: 16.6 µM,active: 7.43 µM,"inconclusive: 23.5 µM [cytotoxic, partial curve]","inconclusive: 33.2 µM [cytotoxic, single point]","inconclusive: 16.6 µM [cytotoxic, partial curve]","inconclusive: 18.7 µM [cytotoxic, partial curve, poor fit]","inconclusive: 20.9 µM [cytotoxic, single point]","inconclusive: 3.32 µM [cytotoxic, partial curve, poor fit]",inactive,inactive,,,,,,
CC1(O)CC(c2nc(-c3ccc4ccc(-c5ccccc5)nc4c3)c3c(N)nccn23)C1 (centres undefined),active: 1.18 µM,"inconclusive: 0.187 µM [cytotoxic, full curve, poor fit]",active: 0.209 µM,"inconclusive: 16.6 µM [cytotoxic, partial curve, poor fit]",,active: 0.662 µM,,,,"inconclusive: 23.5 µM [cytotoxic, partial curve]",,,"inconclusive: 0.0526 µM [cytotoxic, full curve]",active: 0.264 µM,active: 0.235 µM,"inconclusive: 20.9 µM [cytotoxic, partial curve, poor fit]",,
COc1ccc2nc(S(=O)Cc3ncc(C)c(OC)c3C)[nH]c2c1 (centres undefined),inactive,"inconclusive: 11.8 µM [rising, partial curve, poor fit]","inconclusive: 0.0264 µM [rising, full curve]","inconclusive: 0.0021 µM [rising, full curve, poor fit]","inconclusive: 0.0019 µM [rising, full curve]","inconclusive: 0.264 µM [cytotoxic, full curve, poor fit]",inactive,,"inconclusive: 37.2 µM [cytotoxic, single point]",inconclusive: 0.001 µM,"inconclusive: 9.35 µM [cytotoxic, partial curve]","inconclusive: 18.7 µM [cytotoxic, single point]",,"inconclusive: 0.469 µM [rising, partial curve, poor fit]",,"inconclusive: 18.7 µM [cytotoxic, partial curve, poor fit]",active: 18.7 µM,inactive
Nc1nc(F)nc2c1ncn2[C@@H]1O[C@H](CO)[C@@H](O)[C@@H]1O,active: 0.264 µM,active: 0.059 µM,active: 0.469 µM,active: 0.166 µM,,,active: 0.296 µM,,,,,,active: 0.469 µM,,,,,active: 0.59 µM
COc1ccc2cc1Oc1ccc(cc1)C[C@H]1c3cc(c(OC)cc3CCN1C)Oc1c(OC)c(OC)cc3c1[C@H](C2)N(C)CC3,"inconclusive: 0.0332 µM [cytotoxic, full curve, poor fit]","inconclusive: 29.6 µM [rising, partial curve, poor fit]",active: 6.62 µM,"inconclusive: 14.8 µM [cytotoxic, partial curve, poor fit]",,active: 5.9 µM,,,active: 18.7 µM,"inconclusive: 6.62 µM [cytotoxic, full curve, poor fit]",,active: 10.5 µM,,,active: 16.6 µM,,,"inconclusive: 10.5 µM [cytotoxic, partial curve]"
CCCCS(=N)(=O)CCC(N)C(=O)O (centres undefined),"inconclusive: 26.4 µM [cytotoxic, single point]","inconclusive: 16.6 µM [rising, partial curve, poor fit]","inconclusive: 0.0012 µM [rising, full curve, poor fit]",inactive,,"inconclusive: 14.8 µM [cytotoxic, partial curve, poor fit]",inactive,"inconclusive: 0.0012 µM [cytotoxic, full curve, poor fit]","inconclusive: 0.118 µM [rising, full curve, poor fit]","inconclusive: 5.26 µM [rising, partial curve, poor fit]","inconclusive: 9.35 µM [cytotoxic, full curve]",,inactive,,"inconclusive: 9.35 µM [rising, single point]",inactive,inactive,
Cn1cc(-c2[nH]c3cc(NC(=O)[C@H](N)C4CCCCC4)cc4c3c2C=NNC4=O)cn1,active: 0.935 µM,active: 0.166 µM,active: 1.32 µM,,,,,,,"inconclusive: 14.8 µM [cytotoxic, partial curve, poor fit]",,,"inconclusive: 10.5 µM [cytotoxic, partial curve]",,,,,"inconclusive: 16.6 µM [cytotoxic, partial curve]"

# From PubChem BioAssay (NCATS)
